Measured values reported in article PMC9938639.
No constants are given. Whether binding was seen depends on the method and setting. Binding seen in cells or lysates may run through a third protein. Some entries that bind do so weakly or less than the wild type.

Target: Epidermal growth factor receptor (mouse (endogenous in neural progenitor cells from C57BL/6 mice)) (UniProt Q01279)
Test: co-IP; Pierce Co-IP Kit; antibody against GPNMB or EGFR coupled to AminoLink Plus resin, IgG as negative control; pre-cleaned cell lysate (1 mg protein) in 25 mM Tris, 150 mM NaCl, 1 mM EDTA, 1% NP-40, 5% glycerol, pH 7.4; 4 °C for 2 h; Western blot with anti-GPNMB or anti-EGFR

B1: Glycoprotein non-metastatic melanoma B (protein, UniProt Q99P91 23-574)
chain: KRFRDVLGHEQYPDHMREHNQLRGWSSDENEWDEHLYPVWRRGDGRWKDSWEGGRVQAVLTSDSPALVGSNITFVVNLVFPRCQKEDANGNIVYEKNCRNDLGLTSDLHVYNWTAGADDGDWEDGTSRSQHLRFPDRRPFPRPHGWKKWSFVYVFHTLGQYFQKLGRCSARVSINTVNLTAGPQVMEVTVFRRYGRAYIPISKVKDVYVITDQIPVFVTMSQKNDRNLSDEIFLRDLPIVFDVLIHDPSHFLNDSAISYKWNFGDNTGLFVSNNHTLNHTYVLNGTFNLNLTVQTAVPGPCPPPSPSTPPPPSTPPSPPPSPLPTLSTPSPSLMPTGYKSMELSDISNENCRINRYGYFRATITIVEGILEVSIMQIADVPMPTPQPANSLMDFTVTCKGATPMEACTIISDPTCQIAQNRVCSPVAVDGLCLLSVRRAFNGSGTYCVNFTLGDDASLALTSTLISIPGKDPDSPLRAVNGVLISIGCLAVLVTMVTILLYKKHKAYKPIGNCPRNTVKGKGLSVLLSHAKAPFFRGDQEKDPLLQDKPRTL
In the case of B1, the binding is reported as “binds”.
